{
  "source": "paper PMC9071465",
  "assay_in_all_cases": "fluorescence anisotropy",
  "key": {"[1]": {"molecular_target": "T1, At-HIGLE1-183 (Arabidopsis thaliana) (UniProt Q682H4)", "T1 sequence (looked up)": "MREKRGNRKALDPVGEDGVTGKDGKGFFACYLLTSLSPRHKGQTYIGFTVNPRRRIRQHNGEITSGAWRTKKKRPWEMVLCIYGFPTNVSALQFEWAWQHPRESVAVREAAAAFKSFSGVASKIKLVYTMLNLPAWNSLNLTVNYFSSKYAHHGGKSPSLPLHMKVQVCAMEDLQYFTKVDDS", "settings": "2.5 mM Ca2+; 20 mM HEPES pH 7.5, 2.5 mM CaCl2, 100 mM NaCl, 0.5 mM DTT, 2 mM EDTA, 0.1 mg/ml BSA, 25 C; 25 nM DNA (15 nM labeled), protein 0-600 nM; recombinant protein; residues 1-183; protein details: N-terminal 6xHis-SUMO, cleaved off; label: 5' 6-FAM on F0-1; folded or branched DNA"}, "[2]": {"molecular_target": "T2, At-HIGLE H100A (Arabidopsis thaliana) (UniProt Q682H4)", "T2 sequence (looked up)": "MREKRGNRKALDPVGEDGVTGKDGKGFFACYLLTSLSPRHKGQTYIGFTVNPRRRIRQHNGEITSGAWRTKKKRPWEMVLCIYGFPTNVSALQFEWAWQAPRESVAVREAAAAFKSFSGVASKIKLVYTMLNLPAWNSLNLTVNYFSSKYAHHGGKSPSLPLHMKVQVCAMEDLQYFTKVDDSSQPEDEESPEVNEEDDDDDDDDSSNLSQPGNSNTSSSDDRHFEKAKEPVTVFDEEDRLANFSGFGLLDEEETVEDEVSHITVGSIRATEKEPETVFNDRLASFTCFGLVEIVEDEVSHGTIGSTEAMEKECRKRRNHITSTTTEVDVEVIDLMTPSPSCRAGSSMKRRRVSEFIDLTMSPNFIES", "settings": "2.5 mM Ca2+; 20 mM HEPES pH 7.5, 2.5 mM CaCl2, 100 mM NaCl, 0.5 mM DTT, 2 mM EDTA, 0.1 mg/ml BSA, 25 C; 25 nM DNA (15 nM labeled), protein 0-600 nM; recombinant protein; residues 1-368; protein details: N-terminal 6xHis-SUMO, cleaved off; label: 5' 6-FAM on F0-1; folded or branched DNA"}, "[3]": {"molecular_target": "T3, At-HIGLE K115A (Arabidopsis thaliana) (UniProt Q682H4)", "T3 sequence (looked up)": "T2 sequence (looked up) with A100H, K115A", "settings": "2.5 mM Ca2+; 20 mM HEPES pH 7.5, 2.5 mM CaCl2, 100 mM NaCl, 0.5 mM DTT, 2 mM EDTA, 0.1 mg/ml BSA, 25 C; 25 nM DNA (15 nM labeled), protein 0-600 nM; recombinant protein; residues 1-368; protein details: N-terminal 6xHis-SUMO, cleaved off; label: 5' 6-FAM on F0-1; folded or branched DNA"}, "[4]": {"molecular_target": "T4, At-HIGLE R57A (Arabidopsis thaliana) (UniProt Q682H4)", "T4 sequence (looked up)": "T2 sequence (looked up) with R57A, A100H", "settings": "2.5 mM Ca2+; 20 mM HEPES pH 7.5, 2.5 mM CaCl2, 100 mM NaCl, 0.5 mM DTT, 2 mM EDTA, 0.1 mg/ml BSA, 25 C; 25 nM DNA (15 nM labeled), protein 0-600 nM; recombinant protein; residues 1-368; protein details: N-terminal 6xHis-SUMO, cleaved off; label: 5' 6-FAM on F0-1; folded or branched DNA"}, "[5]": {"molecular_target": "T5, At-HIGLE R39A (Arabidopsis thaliana) (UniProt Q682H4)", "T5 sequence (looked up)": "T2 sequence (looked up) with R39A, A100H", "settings": "2.5 mM Ca2+; 20 mM HEPES pH 7.5, 2.5 mM CaCl2, 100 mM NaCl, 0.5 mM DTT, 2 mM EDTA, 0.1 mg/ml BSA, 25 C; 25 nM DNA (15 nM labeled), protein 0-600 nM; recombinant protein; residues 1-368; protein details: N-terminal 6xHis-SUMO, cleaved off; label: 5' 6-FAM on F0-1; folded or branched DNA"}, "[6]": {"molecular_target": "T6, At-HIGLE W96A (Arabidopsis thaliana) (UniProt Q682H4)", "T6 sequence (looked up)": "T2 sequence (looked up) with W96A, A100H", "settings": "2.5 mM Ca2+; 20 mM HEPES pH 7.5, 2.5 mM CaCl2, 100 mM NaCl, 0.5 mM DTT, 2 mM EDTA, 0.1 mg/ml BSA, 25 C; 25 nM DNA (15 nM labeled), protein 0-600 nM; recombinant protein; residues 1-368; protein details: N-terminal 6xHis-SUMO, cleaved off; label: 5' 6-FAM on F0-1; folded or branched DNA"}, "[7]": {"molecular_target": "T7, At-HIGLE (full length) (Arabidopsis thaliana) (UniProt Q682H4)", "T7 sequence (looked up)": "T2 sequence (looked up) with A100H", "settings": "2.5 mM Ca2+; 20 mM HEPES pH 7.5, 2.5 mM CaCl2, 100 mM NaCl, 0.5 mM DTT, 2 mM EDTA, 0.1 mg/ml BSA, 25 C; 25 nM DNA (15 nM labeled), protein 0-600 nM; recombinant protein; residues 1-368; protein details: N-terminal 6xHis-SUMO, cleaved off; label: 5' 6-FAM on F0-1; folded or branched DNA"}, "[8]": {"molecular_target": "T8, At-HIGLE R54A (Arabidopsis thaliana) (UniProt Q682H4)", "T8 sequence (looked up)": "T2 sequence (looked up) with R54A, A100H", "settings": "2.5 mM Ca2+; 20 mM HEPES pH 7.5, 2.5 mM CaCl2, 100 mM NaCl, 0.5 mM DTT, 2 mM EDTA, 0.1 mg/ml BSA, 25 C; 25 nM DNA (15 nM labeled), protein 0-600 nM; recombinant protein; residues 1-368; protein details: N-terminal 6xHis-SUMO, cleaved off; label: 5' 6-FAM on F0-1; folded or branched DNA"}},
  "note": "Numbering of substitutions follows the chain as printed. The exact form of at least one protein or probe is not confirmed. For part of these data: Weaker means in comparison with the reference protein, sequence or condition of that experiment. For part of these data: At least one verdict was read from the data and is not stated in words by the source. Tags and fusion partners may be left off the protein sequences shown.",
  "data": [
    {"sequence": "ACCAGTGCCTTGCTAGGACATCTTTGCCCA / CTAGACAGCTCCATGTAGCAAGGCACTGGT / CATGGAGCTGTCTAG [3' flap]", "values": [
      {"measurement": "binding result", "setting": "[1]", "result": "binds"}
    ]},
    {"sequence": "ACCAGTGCCTTGCTAGGACATCTTTGCCCA / CTAGACAGCTCCATGTAGCAAGGCACTGGT / TGGGCAAAGATGTCC / CATGGAGCTGTCTAG [Replication fork (RF)]", "values": [
      {"measurement": "binding result", "setting": "[1]", "result": "binds"}
    ]},
    {"sequence": "ACCAGTGCCTTGCTAGGACATCTTTGCCCA / CTAGACAGCTCCATGTAGCAAGGCACTGGT / TGGGCAAAGATGTCC [5' flap]", "values": [
      {"measurement": "binding result", "setting": "[1]", "result": "binds"}
    ]},
    {"sequence": "ACCAGTGCCTTGCTAGGACATCTTTGCCCA / CTAGACAGCTCCATGTAGCAAGGCACTGGT [Splayed arm (SA)]", "values": [
      {"measurement": "binding result", "setting": "[1]", "result": "binds"}
    ]},
    {"sequence": "ACCAGTGCCTTGCTAGGACATCTTTGCCCA / TGGGCAAAGATGTCCATCTGTTGTAATCGT / ACGATTACAACAGATCATGGAGCTGTCTAG / CTAGACAGCTCCATGTAGCAAGGCACTGGT [Holliday junction (HJ)]", "values": [
      {"measurement": "binding result", "setting": "[2]", "result": "binds more weakly"},
      {"measurement": "binding result", "setting": "[3]", "result": "binds more weakly"},
      {"measurement": "binding result", "setting": "[4]", "result": "binds more weakly"},
      {"measurement": "binding result", "setting": "[5]", "result": "binds more weakly"},
      {"measurement": "binding result", "setting": "[6]", "result": "binds more weakly"},
      {"measurement": "binding result", "setting": "[7]", "result": "binds"},
      {"measurement": "binding result", "setting": "[8]", "result": "binds more weakly"},
      {"measurement": "binding result", "setting": "[1]", "result": "binds"}
    ]}
  ]
}
